The campaign covered roughly 400,000 compounds. About 5,500 (1.4%) were called active. The inconclusive results got no clear call from the source; some entries with a clear call stand among them for comparison. The call rests on the fitted dose curve; in most records, active means well fitted cell-killing curve with a large enough effect; inconclusive means small, poorly fitted or top-dose-only effect, or effect the other way; inactive means flat fitted curve, though single readings scatter. Where the call is inconclusive, the potency comes from a doubtful curve fit.
Assay: qHTS assay for MDR1-selective chemotherapeutics: Primary screen using the parental adenocarcinoma cell KB-3-1; further: nearly all actives have a fitted effect of over 60% in size
Conditions: KB-3-1 viability, CellTiter-Glo ATP luminescence, 72 h; activity change, negative = cytotoxic: at 46.1 µM (top of the series)
How it was run: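 72 h, 37 °C compound treatment of KB-3-1 parental cells; CellTiter-Glo added, 10 min, luminescence read. Data corrected against DMSO-only plates and normalized before curve fitting.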
On the % scale 0 is the no-effect control and ±100 the full control effect; potency means the concentration at half of the fitted maximal effect.

| SMILES | Potency | activity change, negative = cytotoxic |
| --- | --- | --- |
| CCOC(=O)Cn1c(=O)oc2cc(S(=O)(=O)NCCCc3ccccc3)ccc21 | inactive | – |
| O=C(CC(c1ccc(F)cc1)c1ccco1)Nc1nccs1 (stereo not drawn) | inconclusive: 29.1 µM [cytotoxic, partial curve, poor fit] | – |
| C=CCNc1nc(N)c(C(=C(C#N)C#N)c2ccc(Br)cc2)s1 | inconclusive: 18.4 µM [cytotoxic, single point] | – |
| CCCCn1c(NC(=O)C2CCCCC2)nc2ccccc21 | inconclusive: 29.1 µM [cytotoxic, single point] | – |
| COc1ccccc1NC(=O)c1ccc(S(=O)(=O)N(C)c2ccccc2)cc1 | inactive | – |
| CCN1C[C@@H]2[C@@H]3C(=O)N(Cc4ccccc4)C(=O)[C@@H]3[C@](C)(C1=O)N2C(=O)c1ccc(Cl)cc1 | – | inconclusive: 42.1% |
| Cc1ccc(NC(=O)CSc2nc(C)c(C)c(C)n2)c([N+](=O)[O-])c1 | – | inconclusive: 0% |
| COc1cccc(C2=NOC(C(=O)NCc3cccs3)C2)c1 (stereo not drawn) | inconclusive: 29.1 µM [cytotoxic, single point] | – |
| COc1c(Br)cc(Br)cc1/C=N/NC(=O)c1cccnc1 | active: 16.4 µM | – |
| Cc1ccccc1CN(c1ccc(C(=O)NCCC2=CCCCC2)cc1)S(C)(=O)=O | inconclusive: 18.4 µM [cytotoxic, single point] | – |
| Cc1cc2nc(-c3ccccc3)c(Cc3ccsc3)n2c(C)c1Br | inconclusive: 23.1 µM [cytotoxic, single point] | – |
| O=C(NCC1CCCO1)c1ccccc1OCc1ccc(F)cc1 (stereo not drawn) | inactive | – |
| O=[N+]([O-])c1cc(CN2CCN(c3ccccc3)CC2)c(O)c2ncccc12 | inconclusive: 2.31 µM [cytotoxic, full curve, poor fit] | – |
| Cc1cc(N2CCN(S(=O)(=O)c3ccc(Cl)c(Cl)c3)CC2)c2ccccc2n1 | active: 20.6 µM | – |
| Clc1cccc(OCCN2CCN(CCOc3cccc(Cl)c3)CC2)c1 | active: 16.4 µM | – |
| O=C(Oc1ccc(=O)n(-c2ccccc2)n1)c1ccc(Cl)cc1 | inactive | – |
| C[C@@H]1CNC(=O)c2c(C(=O)Nc3ccc(CNC(=O)OC(C)(C)C)cc3)ncn21 | inactive | – |
| O=[N+]([O-])c1cc(-n2cccc2)ccc1N1CCOCC1 | inconclusive: 29.1 µM [cytotoxic, single point] | – |
| Cc1nc2ccccc2c(=O)n1-c1cccc(NC(=O)c2cccs2)c1 | inactive | – |
| CC1C/C(=C\c2cccnc2)C(=O)/C(=C/c2cccnc2)C1 (stereo not drawn) | inconclusive: 4.11 µM [cytotoxic, full curve, poor fit] | – |
| CCOc1ccc(-c2nonc2NC(=O)COc2ccccc2)cc1 | inactive | – |
| COC(=O)c1ccc(COC(=O)CNC(=O)CNC(=O)c2ccc(OC)cc2)cc1 | inactive | – |
| CCN(CC(=O)Nc1cc(S(=O)(=O)N2CCCCC2)ccc1C)Cc1ccccc1 | inconclusive: 29.1 µM [cytotoxic, single point] | – |
| CCOC(=O)c1c(NC(=O)C(C)N2CCN(C(=O)c3ccco3)CC2)sc2c1CCCC2 (stereo not drawn) | inconclusive: 18.4 µM [cytotoxic, single point] | – |

For reference, some entries already given:

| SMILES | Potency | activity change, negative = cytotoxic |
| --- | --- | --- |
| COc1c(Br)cc(Br)cc1/C=N/NC(=O)c1cccnc1 | active: 16.4 µM | – |
| Cc1ccccc1CN(c1ccc(C(=O)NCCC2=CCCCC2)cc1)S(C)(=O)=O | inconclusive: 18.4 µM [cytotoxic, single point] | – |
| Cc1cc2nc(-c3ccccc3)c(Cc3ccsc3)n2c(C)c1Br | inconclusive: 23.1 µM [cytotoxic, single point] | – |
| O=C(NCC1CCCO1)c1ccccc1OCc1ccc(F)cc1 (stereo not drawn) | inactive | – |
| O=[N+]([O-])c1cc(CN2CCN(c3ccccc3)CC2)c(O)c2ncccc12 | inconclusive: 2.31 µM [cytotoxic, full curve, poor fit] | – |
| Cc1cc(N2CCN(S(=O)(=O)c3ccc(Cl)c(Cl)c3)CC2)c2ccccc2n1 | active: 20.6 µM | – |
| Clc1cccc(OCCN2CCN(CCOc3cccc(Cl)c3)CC2)c1 | active: 16.4 µM | – |
| O=C(Oc1ccc(=O)n(-c2ccccc2)n1)c1ccc(Cl)cc1 | inactive | – |
| C[C@@H]1CNC(=O)c2c(C(=O)Nc3ccc(CNC(=O)OC(C)(C)C)cc3)ncn21 | inactive | – |
| O=[N+]([O-])c1cc(-n2cccc2)ccc1N1CCOCC1 | inconclusive: 29.1 µM [cytotoxic, single point] | – |
| Cc1nc2ccccc2c(=O)n1-c1cccc(NC(=O)c2cccs2)c1 | inactive | – |
| CC1C/C(=C\c2cccnc2)C(=O)/C(=C/c2cccnc2)C1 (stereo not drawn) | inconclusive: 4.11 µM [cytotoxic, full curve, poor fit] | – |

Remaining list, next part

| SMILES | Potency | activity change, negative = cytotoxic |
| --- | --- | --- |
| Cc1ccc(S(=O)(=O)n2nc(OC(=O)c3c(-c4ccccc4Cl)noc3C)cc2N)cc1 | inconclusive: 29.1 µM [cytotoxic, single point] | – |
| Cn1c(=O)oc2cc(S(=O)(=O)N3CCCC(C(=O)N4CCN(c5cccc(Cl)c5)CC4)C3)ccc21 (stereo not drawn) | active: 20.6 µM | – |
| c1ccc(Nc2nc(NCC3CCCO3)c3ccccc3n2)cc1 (stereo not drawn) | active: 16.4 µM | – |
| COc1ccccc1N1CCN(C(=O)c2cc3c(C)nc4ccccc4c3o2)CC1 | inconclusive: 20.6 µM [cytotoxic, single point] | – |
| O=C(/C=C/c1cccnc1)c1cccc(O)c1 | inconclusive: 29.1 µM [cytotoxic, single point] | – |
| FC(F)(F)c1nnc2c(Sc3ccccn3)nc3ccccc3n12 | inconclusive: 29.1 µM [cytotoxic, single point] | – |
| CN(C)C(=O)NC1c2ccccc2-c2ccccc21 | inactive | – |
| Cc1ccc2c(c1)C(=O)C(=O)N2CC(=O)Nc1ccccc1NC(=O)c1ccccn1 | inconclusive: 29.1 µM [cytotoxic, single point] | – |
| O=C(N/N=C/c1ccc[nH]1)c1sc2ccccc2c1Cl | inactive | – |
| COc1cc(Cl)ccc1NC(=S)N(CCCN1CCOCC1)Cc1cn(C)c2ccccc12 | inconclusive: 18.4 µM [cytotoxic, single point] | – |
| CC(C)(C)NC(=O)NC(=O)C[n+]1ccc(Cc2ccc([N+](=O)[O-])cc2)cc1 | inconclusive: 18.4 µM [cytotoxic, single point] | – |
| C#Cc1cccc(Nc2nc(NCCOC)nc3ccsc23)c1 | inactive | – |
| N=c1c(S(=O)(=O)c2ccccc2)cc2c(=O)n3ccccc3nc2n1C1CCCCC1 | inactive | – |
| COc1ccc(OC)c(NC(=O)N(C)CCc2c(C)nn(C)c2C)c1 | inactive | – |
| C(=Nc1cccnc1)c1ccc2ccccc2n1 | inactive | – |
| O=C(NNC(=O)c1ccc(Oc2cc(Cl)cc(Cl)c2)o1)c1ccccc1 | inconclusive: 29.1 µM [cytotoxic, single point] | – |
| O=C(N=Nc1c(O)n(Cc2ccccc2)c2ccccc12)c1ccc(O)cc1 | inconclusive: 29.1 µM [cytotoxic, single point] | – |
| COc1cccc(Nc2nnc(SCC(=O)Nc3sccc3C(N)=O)s2)c1 | inconclusive: 9.2 µM [cytotoxic, partial curve] | – |
| Cc1ccccc1-c1ccccc1CN1[C@@H](C(C)C)COCCS1(=O)=O | inconclusive: 0.0092 µM [rising, full curve] | – |
| Cc1sc2nc(-c3ccccn3)[nH]c(=O)c2c1-c1ccccc1 | inconclusive: 2.91 µM [cytotoxic, full curve] | – |
| Cc1ccc(NC(=O)/C(=C/c2cccc(Br)c2)NC(=O)c2ccco2)cc1 | inactive | – |
| CCCCOc1ccc(C(O)(CCC)CCN2CCOCC2)cc1 (stereo not drawn) | active: 23.1 µM | – |
| O=c1c2cc(NC(=S)NC3CCCCC3)ccc2nc2n1CCCCC2 | inactive | – |
| CCOC(=O)c1c(NC(=O)CSc2nnnn2-c2ccc3c(c2)OCCO3)sc(C)c1C | inactive | – |

Reference: PubChem BioAssay AID1347075 (National Center for Advancing Translational Sciences (NCATS), 2019)
